The list shows a part of the results. The main result of the screen is listed elsewhere. These columns were measured beside it and carry no call. Compounds called inactive in the main read-out are mostly missing here. Words in brackets tell the shape of the fitted curve; partial curves, single points and poor fits give uncertain potencies.
Assay: qHTS Assay for Modulators of Lamin A Splicing
Conditions: HeLa LMNA splicing GFP/RFP minigene ratio, 48 h
From the text: NCGC Assay Overview: Hutchinson-Gilford Progeria Syndrome (HGPS) is a pediatric premature aging disease caused by a spontaneous mutation in the lamin A/C (LMNA) gene. The mutation activates a cryptic splice site in the LMNA pre-mRNA which results in production of a pre-lamin A protein that cannot be processed properly. The mutant protein accumulates in the nucleus and negatively affects numerous cellular functions. Correction of the splicing defect in HGPS patient cells using a targeted oligonucleotide (exo11) leads to reversal of the cellular disease phenotypes. To identify small molecule modulators of aberrant LMNA splicing, a homogenous assay was constructed in HeLa cells that used a GFP containing minigene to report on correction of aberrant splicing in lamin A and a RFP (DsRed2) to report on cell viability, uniformity and nonspecific effects on the assay signal. This assay was adapted to laser-scanning microplate cytometry (Acumen, TTP Labtech) where miniaturization of the assay to a 1,536-well plate format was possible. References: Bowen, W. P.; Wylie, P. G. Application of Laser-Scanning Fluorescence Microplate Cytometry in High Content Screening. Assay Drug Dev Technol 2006;4:209-221. Scaffidi P, Misteli T. Reversal of the cellular phenotype in the premature aging disease Hutchinson-Gilford progeria syndrome. Nat.
NCGC Assay Protocol Summary: Reagents/Controls: Stable clones expressing DsRed2 and lamin A-EGFP were generated by Cell and Molecular Technologies in S3 HeLa cells. HeLa cells were prepared for the assay when they were 70-90% confluent. The cells were counted and resuspended in Opti-MEM I (no phenol red; Gibco), 2% FBS, 1% penicillin/ streptomycin (Gibco) at concentration of 120 cells/uL concentration. The suspension was passed through a Falcon basket filter with pore size 40um (Beckton Dickson). Control titrations: column […] 1536-well plate contained a sixteen point titration (1:2 dilutions) in duplicate of ancitabine (Sigma: A8598) beginning at 40 uM final concentration. Column 2 contained a sixteen point titration (1:2 dilutions) of cycloheximide beginning at 1.4 mM final concentration. Column 3 contained ancitabine at 40 uM and column 4 contained was the vehicle control (0.5% DMSO final concentration). Assay Steps: 5 uL of HeLa cells were plated in Aurora LoBase black clear bottom (cyclic-olefin polymer) 1536-well plates at a final density of 600 cells/well. Controls and library compounds were added with a 1536-well pin array using the Kalypsys pin-tool. The plates were then incubated for 48 hrs in a cell-culture incubator (37 °C; 5% CO2, 98% humidity). Following incubation the plates were read on the Acumen Explorer using the 488 nm laser. Data was collected on objects between 10 and 100 um in size. Cell objects were defined by a 15 um width x 10 um depth filter. The ratio of the total object intensity in PMT1 (500-530 nm emission; GFP) over PMT3 (575-640 nm emission; RFP) was calculated for analysis. Keywords: NIH Roadmap, MLSCN, MLI, MLSMR, qHTS, NCGC, lamin A, Progeria, RNA splicing.

[1] = measured here: RFP viability control channel
[2] = measured here: GFP splicing reporter channel

Row | Structure (SMILES) | AC50 [1] | AC50 [2]
1 | CCOC(=O)N1CCN(Cc2nc3cc(NC(=O)c4ccc(OC)cc4)ccc3n2C(C)C)CC1 | 14.1 µM [rising, partial curve] | –
2 | CC1(CCc2ccccc2)NC(=S)N(c2ccccc2)N1 (stereo not drawn) | – | 15.8 µM [rising, single point]
3 | O=C(Nc1ccc(Oc2ccccc2)cc1)c1ccco1 | 25.1 µM [rising, single point] | 14.1 µM [rising, partial curve]
4 | Nc1n[nH]c2cc(=O)n(-c3cccc(C(F)(F)F)c3)nc12 | – | 6.31 µM [falling, partial curve]
5 | Cc1ccccc1OCC(O)CN1CCN(CC(O)COc2ccccc2C)CC1 (stereo not drawn) | 22.4 µM [falling, single point] | 35.5 µM [falling, single point]
6 | O=c1oc2ccccc2c(N2CCCC2)c1CN1CCCC1 | 11.2 µM [rising, partial curve] | –
7 | Cc1ccc(CN(C(=O)c2ccccc2F)c2ccccn2)o1 | 31.6 µM [rising, single point] | –
8 | Cc1nnc2n1N=CC=C(c1ccccc1)S2 | – | 35.5 µM [falling, single point]
9 | O=C(c1ccc(Cl)c(S(=O)(=O)N2CCCC2)c1)N1CCN(c2ncccn2)CC1 | 0.00447 µM [falling, full curve] | –
10 | CCOc1ccc(C(=O)Nc2cccc(C(=O)OCc3cc(=O)n4nc(C5CC5)sc4n3)c2)cc1 | – | 6.31 µM [falling, full curve, poor fit]
11 | CC1CCCCN1CCNc1nc(=S)[nH]c2ccccc12 (stereo not drawn) | 3.98 µM [falling, single point] | –
12 | O=C(CSc1nc(O)cc(=O)n1-c1ccccc1)Nc1ccc(Br)cn1 | 3.55 µM [rising, partial curve, poor fit] | 0.126 µM [rising, full curve, poor fit]
13 | Cc1cc(NC(=O)CS(=O)(=O)c2cn(Cc3ccc(F)cc3)c3ccccc23)no1 | 35.5 µM [rising, single point] | –
14 | O=C(NCC1CCN(c2ccc(S(=O)(=O)N3CCOCC3)cc2)CC1)c1cccc(Cl)c1 | 20 µM [rising, single point] | –
15 | CCOC(=O)c1ccccc1NC(=O)CSc1nc(=O)[nH]c2c1CCC2 | 0.00316 µM [falling, full curve, poor fit] | –
16 | O=C(COC(=O)c1cccs1)Nc1cc(S(=O)(=O)N2CCOCC2)ccc1Cl | – | 6.31 µM [falling, single point]
17 | CCCS(=O)(=O)N1CC(=O)N(c2cc(C)ccc2C)C(C)(C(=O)NC2CCCCCC2)C1 (stereo not drawn) | 0.0282 µM [falling, full curve] | 0.0316 µM [falling, full curve]
18 | CC(c1ccco1)N(C(=O)C12CC3CC(CC(C)(C3)C1)C2)c1ccccn1 (stereo not drawn) | 17.8 µM [rising, partial curve] | 11.2 µM [rising, partial curve, poor fit]
19 | O=C(NC(=S)N1CCN(c2ccc(Cl)cc2[N+](=O)[O-])CC1)c1cccs1 | 15.8 µM [rising, single point] | –

A different layout for some results above.

| Row | Structure (SMILES) | AC50 [1] | AC50 [2] |
| --- | --- | --- | --- |
| 13 | Cc1cc(NC(=O)CS(=O)(=O)c2cn(Cc3ccc(F)cc3)c3ccccc23)no1 | 35.5 µM [rising, single point] | – |
| 14 | O=C(NCC1CCN(c2ccc(S(=O)(=O)N3CCOCC3)cc2)CC1)c1cccc(Cl)c1 | 20 µM [rising, single point] | – |

Next part:

Row | Structure (SMILES) | AC50 [1] | AC50 [2]
20 | N#C/C(=C\c1ccc(Br)s1)C(=O)N1CCN(c2ccccc2)CC1 | 12.6 µM [rising, single point] | –
21 | CC(C)c1ccccc1NC(=O)COC(=O)c1cc(=O)[nH]c(=O)[nH]1 | 0.316 µM [falling, full curve, poor fit] | –
22 | CCn1c(CNc2ccc(Cl)cc2)nnc1SCc1ccc(C)cc1 | 35.5 µM [rising, single point] | –
23 | C/C(=N\NC(=O)c1ccccc1NC(=O)c1ccc(Cl)cc1)c1ccncc1 | 8.91 µM [falling, partial curve] | 10 µM [falling, partial curve, poor fit]
24 | CS(=O)(=O)Nc1ccc(C(=O)N2CCc3ccccc3C2)cc1 | – | 35.5 µM [rising, single point]
25 | CCc1ccc(-c2cc(C(=O)NCc3ccco3)c3ccccc3n2)s1 | – | 3.16 µM [rising, partial curve]
26 | C=CCN(CC=C)S(=O)(=O)c1ccc2nc(NC(=O)C(C)C)sc2c1 | 3.98 µM [rising, single point] | –
27 | O=C(CSc1c(Cl)cccc1Cl)N1CCC(c2nc3ccccc3s2)CC1 | 14.1 µM [falling, partial curve] | 11.2 µM [falling, partial curve, poor fit]
28 | C=CCc1ccccc1OCC(O)CN1CCN(C(=O)OCC)CC1 (stereo not drawn) | 5.01 µM [rising, single point] | 7.08 µM [rising, single point]
29 | Cc1cc(Nc2cccc(Cl)c2)nc(NCc2ccccc2)n1 | 15.8 µM [rising, partial curve] | 12.6 µM [rising, single point]
30 | CCN=C1S/C(=C\c2cc(OCC)c(O)cc2Br)C(=O)N1CC | 12.6 µM [rising, partial curve] | 11.2 µM [rising, partial curve, poor fit]
31 | N#Cc1cccc(-c2nc(N3CCNCC3)c3ccccc3n2)c1 | 35.5 µM [rising, single point] | –
32 | Clc1ccccc1-c1nc(Nc2ccncc2)c2ccccc2n1 | 20 µM [falling, partial curve, poor fit] | 17.8 µM [falling, partial curve]
33 | O=C(COc1ccc(S(=O)(=O)NC2CCCCC2)cc1Cl)NCc1ccc2c(c1)OCO2 | 15.8 µM [rising, single point] | –
34 | Cc1ccc2nc(N3C(=O)CNC3=S)sc2c1 | 22.4 µM [rising, single point] | –
35 | CCn1c(C)[n+](CC)c2ccc(C(=O)N(C)c3ccccc3)cc21 | – | 25.1 µM [falling, single point]
36 | O=c1c2nccnc2[nH]c(=S)n1Cc1ccccc1 | – | 0.0708 µM [rising, full curve, poor fit]
37 | Clc1ccc(CSc2nnc(-c3ccncc3)o2)c(Cl)c1 | 25.1 µM [rising, single point] | –

From PubChem BioAssay AID1487 (National Center for Advancing Translational Sciences (NCATS), 2009)
